# Test results from PubChem BioAssay AID1347076 (National Center for Advancing Translational Sciences (NCATS), 2019).
# Screen size: about 400,000 compounds; about 13,000 (3.2%) were called active. The inconclusive results got no clear call from the source; some entries with a clear call stand among them for comparison. The call rests on the fitted dose curve; in most records, active means well fitted cell-killing curve with a large enough effect; inconclusive means small, poorly fitted or top-dose-only effect, or effect the other way; inactive means flat fitted curve, though single readings scatter. Potencies of inconclusive entries are doubtful fits and often do not repeat.
# Assay: qHTS assay for MDR1-selective chemotherapeutics: Primary screen using the drug-selected MDR subline cells KB-V1; further: nearly all actives have a fitted effect of over 60% in size
# Details: KB-V1 MDR cells viability, CellTiter-Glo, 72 h; activity change, negative = cytotoxicity: at 46.1 µM (top of the series)
# Outline: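 Drug-selected KB-V1 cells, grown in DMEM lacking phenol red with 10% FBS, receive compound titrations; after three days at 37 degrees C, surviving cell ATP is quantified by CellTiter-Glo luminescence and responses normalized and curve-fitted.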
# On the % scale 0 is the no-effect control and ±100 the full control effect; potency means the concentration at half of the fitted maximal effect.
SMILES,Potency,"activity change, negative = cytotoxicity"
CSc1ccc(C#N)cc1NC(=O)c1ccc(Cl)cc1Cl,"inconclusive: 9.2 µM [cytotoxic, partial curve]",
CCOC(=O)C1CCN(c2ccc(C(N)=O)cc2[N+](=O)[O-])CC1,"inconclusive: 20.6 µM [cytotoxic, partial curve]",
CCOCCCn1c(=O)c(NC(=O)c2ccc(OCC)cc2)c2n(c1=S)CCCCC2,active: 8.2 µM,
C=CCn1c(-c2ccc(N)cc2)nc2ccccc21,"inconclusive: 0.82 µM [rising, full curve]",
CC(=O)c1ccc(NC2=C(N3CCOCC3)C(=O)c3ccccc3C2=O)cc1,active: 25.9 µM,
Cc1cnc(C(=O)NNC(=O)c2ccc(Br)cc2)cn1,,inactive: -21.7%
COc1ccc(NC(=O)c2sc3nc(N4CCOCC4)c4c(c3c2N)CCCC4)c(OC)c1,,inactive: 5.83%
COc1ccccc1OCCCc1c(C)n[nH]c1C,active: 16.4 µM,
COc1c(Cl)cc(Cl)cc1CNc1ccc(S(N)(=O)=O)cc1,"inconclusive: 0.651 µM [cytotoxic, partial curve, poor fit]",
CCc1cc2c(CN(C)Cc3ccccc3F)cc(=O)oc2cc1O,active: 11.6 µM,
COc1ccc(CN2C(=O)c3ccccc3C2c2nnnn2Cc2ccccc2)cc1OC (stereo not given),"inconclusive: 11.6 µM [cytotoxic, partial curve]",
COc1ccc(C(=O)N/C(=C/c2cccs2)C(=O)NCCCn2ccnc2)cc1OC,"inconclusive: 17.8 µM [rising, partial curve, poor fit]",
CCCc1cc(-c2nc(N)ncc2-c2ccc3c(c2)OCCCO3)c(O)cc1OC,active: 2.91 µM,
COc1ccc(S(=O)(=O)N2CCCN(S(=O)(=O)c3ccc(OC)c(C)c3)CC2)cc1C,"inconclusive: 25.9 µM [cytotoxic, single point]",
CSCCC(c1nnnn1C(C)(C)C)N1CCN(C/C=C/c2ccccc2)CC1 (stereo not given),,inactive: 0%
COC(=O)c1ccsc1NC(=O)CN1CCN(c2ccc(F)cc2)CC1,"inconclusive: 14.6 µM [cytotoxic, partial curve]",
COc1cc2ccccc2cc1C(=O)NC(=S)Nc1ccc(C(=O)O)cc1,"inconclusive: 14.6 µM [rising, single point]",
O=c1cc(NCCc2ccccc2)c2ccccc2o1,active: 13 µM,
Cc1c(NC(=O)CCN2C(=O)c3ccccc3C2=O)c(=O)n(-c2ccccc2)n1C,"inconclusive: 29.1 µM [rising, single point]",
COCCCNC(=O)CCn1c(=O)c2ccccc2n(CC(=O)Nc2cc(Cl)ccc2OC)c1=O,"inconclusive: 23.1 µM [rising, partial curve, poor fit]",

# A different layout for part of the listing above:
SMILES | Potency | activity change, negative = cytotoxicity
COc1ccc(NC(=O)c2sc3nc(N4CCOCC4)c4c(c3c2N)CCCC4)c(OC)c1 |  | inactive: 5.83%
CCc1cc2c(CN(C)Cc3ccccc3F)cc(=O)oc2cc1O | active: 11.6 µM | 
